Experimental data taken from article PMC5706957.
Results are given in words; binding and its absence hold for the method and conditions named. A result given as binding can be weak or reduced; the word gives no strength.

Biological target: GST-GukH^749-1044 (GukHolder COOH-terminus) (Drosophila)
Experiment: pull-down; GST fusions (GST-Khc73 MBS, GST-GukH 749-1044) on glutathione agarose with purified Dlg GK or SH3GK proteins (legend of Figure 5A); binding buffer 10 mM HEPES pH 7.5, 100 mM NaCl, 1 mM dithiothreitol, 0.002% Triton X-100, 4°C, 1 hr; the methods tell the reverse orientation (GST-Dlg on beads, His-GukH added, anti-His blot); both purified

Row | Binder | binding
1 | Discs large SH3GK S662D (domain or fragment, UniProt P31007-5 598-975) TQKRSLYVRALFDYDPNRDDGLPSRGLPFKHGDILHVTNASDDEWWQARRVLGDNEDEQIGIVPDKRRWERKMRARDRSVKFQGHAAANNNLDKQSTLDRKKKNFTFSRKFPFMKSRDEKNEDGSDQEPNGVVSSTSEIDINNVNNNQSNEPQPFMLCYTQDDANAEGASEENVLSYEAVQRLSINYTRPVIILGPLKDRINDDLISEYPDKFGSCVPHTTRPKREYEVDGRDYHFVSSREQMERDIQNHLFIEAGQYNDNLYGTSVASVREVAEKGKHCILDVSGNAIKRLQVAQLYPVAVFIKPKSVDSVMEMNRRMTEEQAKKTYERAIKMEQEFGEYFTGVVQGDTIEEIYSKVKSMIWSQSGPTIWVPSKESL | binds
2 | Discs large SH3GK S676D (domain or fragment, UniProt P31007-5 598-975) TQKRSLYVRALFDYDPNRDDGLPSRGLPFKHGDILHVTNASDDEWWQARRVLGDNEDEQIGIVPSKRRWERKMRARDRDVKFQGHAAANNNLDKQSTLDRKKKNFTFSRKFPFMKSRDEKNEDGSDQEPNGVVSSTSEIDINNVNNNQSNEPQPFMLCYTQDDANAEGASEENVLSYEAVQRLSINYTRPVIILGPLKDRINDDLISEYPDKFGSCVPHTTRPKREYEVDGRDYHFVSSREQMERDIQNHLFIEAGQYNDNLYGTSVASVREVAEKGKHCILDVSGNAIKRLQVAQLYPVAVFIKPKSVDSVMEMNRRMTEEQAKKTYERAIKMEQEFGEYFTGVVQGDTIEEIYSKVKSMIWSQSGPTIWVPSKESL | binds
